Data source: PubChem BioAssay AID602196 (INSERM, 2012)

Assay: 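Genes whose knock-down alters cisplatin killing of lung cancer cells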
Cells: human A549 lung cancer cells
Reagent: siRNA pair against human genes
Time to read-out: 48 h transfection before cisplatin; time from cisplatin to read-out not stated
Challenge: cisplatin at a dose killing half of control-siRNA cells; exact dose and duration not given
Measured: 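Cisplatin cell death as a shift from the 50% death seen with control siRNA; siRNAs toxic or growth-blocking alone scored 0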
Reading the numbers: two-siRNA summed score (-2 to +2): higher = both siRNAs protect from cisplatin killing; -2 means both sensitise; mean protection from cisplatin (shift in death) and protection from cisplatin (shift in death), siRNA C and protection from cisplatin (shift in death), siRNA D: higher = protection from cisplatin killing
Rule for the call: 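siRNAs harmful alone (LDH or WST-1) get 0; others get +1 for less and -1 for more cisplatin killing; genes are active when the two siRNAs give the same sign, summing to ±2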
Meaning of the calls: active = both siRNAs shift cisplatin killing the same way; inactive = no consistent shift, or siRNA harmful alone
The whole screen tested about 23,000 reagents; below is a part drawn at random. 455 of all reagents (2%) count as active. 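Active includes both protection and sensitisation; some change values fall well beyond the stated -50 to +50 range.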 A number with no mark means an inactive call. Reagent sequences are not shown. The record does not give: the amount of reagent.

gene | two-siRNA summed score (-2 to +2) | mean protection from cisplatin (shift in death) (%) | protection from cisplatin (shift in death), siRNA C (%) | protection from cisplatin (shift in death), siRNA D (%)
HSD17B7 (GeneID 51478) | -1 | -14.4 | -29.1 | 0.2
EQTN (GeneID 54586) | 0 | 13.2 | 16.9 | 9.6
TMC8 (GeneID 147138) | 0 | 7.7 | 10.5 | 5
TTC7A (GeneID 57217) | -1 | -1.3 | 12 | -14.7
PYDC1 (GeneID 260434) | 0 | 0.6 | 4.9 | -3.7
USP47 (GeneID 55031) | -1 | -7.3 | -15.1 | 0.6
PAX5 (GeneID 5079) | 0 | 1.6 | -5.1 | 8.4
TPH1 (GeneID 7166) | 1 | 16.9 | 15.6 | 18.2
FAM201A (GeneID 158228) | 1 | 23.9 | 22.8 | 25.1
MET (GeneID 4233) | 0 | 2.1 | 11.7 | -7.5
ADAM20 (GeneID 8748) | 0 | -4.8 | -0.8 | -8.7
EDN1 (GeneID 1906) | 0 | -12.4 | -9.6 | -15.2
LOC341651 | 0 | 6.8 | 0.5 | 13.1

Next part; the last 2 above are carried over.
gene | two-siRNA summed score (-2 to +2) | mean protection from cisplatin (shift in death) (%) | protection from cisplatin (shift in death), siRNA C (%) | protection from cisplatin (shift in death), siRNA D (%)
EDN1 (GeneID 1906) | 0 | -12.4 | -9.6 | -15.2
LOC341651 | 0 | 6.8 | 0.5 | 13.1
LOC389656 | 0 | 6.5 | 5.9 | 7.1
OSBPL10 (GeneID 114884) | 0 | 6.8 | 2.3 | 11.3
OR2B6 (GeneID 26212) | -1 | -4.1 | -19.9 | 11.7
MINDY1 (GeneID 55793) | 0 | 6.8 | 4.4 | 9.3
CCND3 (GeneID 896) | 1 | 19 | 21.1 | 16.8
RBM27 (GeneID 54439) | 0 | 7.9 | 4 | 11.8
PHTF2 (GeneID 57157) | 1 | 10.3 | 2.2 | 18.3
LOC388934 | 0 | 2.8 | 3.7 | 2
AGPAT5 (GeneID 55326) | -1 | -10.4 | -5.2 | -15.5
HTR1A (GeneID 3350) | 0 | 0.4 | -9 | 9.8
